# Measured values taken from paper PMC7819943, “Rice protein-binding microarrays: a tool to detect cis-acting elements near promoter regions in rice”.
# The chains behind the UniProt entries cited, without tags or fusion partners.
# UniProt Q0JBA9, entry or part of it: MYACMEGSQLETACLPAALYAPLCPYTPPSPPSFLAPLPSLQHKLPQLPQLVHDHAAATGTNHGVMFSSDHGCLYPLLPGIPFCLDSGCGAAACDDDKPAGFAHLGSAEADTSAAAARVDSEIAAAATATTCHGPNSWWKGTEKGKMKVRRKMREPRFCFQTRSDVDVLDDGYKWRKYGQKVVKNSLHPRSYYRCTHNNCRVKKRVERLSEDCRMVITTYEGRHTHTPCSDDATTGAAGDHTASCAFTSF
# Some of the results follow.
# Target: OsWRKY34 (Oryza sativa, UniProt Q0JBA9 1-250)
# Test: protein-binding microarray (RPBM); PBS, 2% BSA, 51.3 ng/ul salmon testes DNA, 50 uM zinc acetate, 200 nM TF, 25 C, 1 h; high values mean tight binding
# Settings: protein: recombinant; tags: N-terminal polyhistidine and DsRed monomer fusion (pET32a); label: CyDye5-dUTP incorporated in the synthesized complementary strand; 3' TTTTT single-stranded linker to array surface; dsDNA, one strand shown
# Procedure, shortened: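 An Axon 4000B scanner gave the binding signal as per-feature fluorescence intensity in arbitrary units. This followed washing of a custom Agilent array that had been incubated for 1 h at 25 °C with 200 nM protein in PBS, 2% BSA, salmon testes DNA and 50 µM zinc acetate. The proteins were transcription factors fused at the N-terminus to polyhistidine and DsRed, expressed in E. coli BL21-CodonPlus and purified on Ni–NTA.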
row,Sequence,binding signal
1,CATCCACTACCATTTCGCCGTCCACTTGTCATTCTTTTCACGGAGTCACCTAGTGCAG,10900 fluorescence intensity (a.u.)
2,AGCTCATCACTTCTTCTTGCATGCATGCACTACCGTCGGCCGGAGTCACCTAGTGCAG,10400 fluorescence intensity (a.u.)
3,CAGCTCGAGCTGTTTGCTTGTGGGGTTCTTGTTTTTCTTTCGGAGTCACCTAGTGCAG,8020 fluorescence intensity (a.u.)
4,TTTCATCAAATTCCTGTGTTTTTCGTGCGGTTGAATCAAACGGAGTCACCTAGTGCAG,8720 fluorescence intensity (a.u.)
5,CGCTTTCACTTTGTTCTACTACTACTACCGAGCTTTTGAGCGGAGTCACCTAGTGCAG,8060 fluorescence intensity (a.u.)
6,ATCACTACGCATGTTGTCAGCTGAATGTCTTGTAGCGTGTCGGAGTCACCTAGTGCAG,9420 fluorescence intensity (a.u.)
7,CCTGTTGGTCATCCACTAAAATGCGTTTCTTCTCGCAAAACGGAGTCACCTAGTGCAG,8310 fluorescence intensity (a.u.)
8,ATTTGCAGGTTTAGCCACAGTACGCATGCGTTGTGTTCGTCGGAGTCACCTAGTGCAG,10500 fluorescence intensity (a.u.)
9,TTCCTCTCTCGCTCATTTTCGCCGCCGCCACCACCGACGACGGAGTCACCTAGTGCAG,11100 fluorescence intensity (a.u.)
10,AGCTACCACGTCAACTGAATACCCCTGTTCCCGGACAGAACGGAGTCACCTAGTGCAG,9340 fluorescence intensity (a.u.)
11,AGTTCTACATGTGCCAACCACATCCCAATACGCCGACATCCGGAGTCACCTAGTGCAG,11100 fluorescence intensity (a.u.)
12,TCGCGTCGTCCCCAAATCCGCTACTCGCTATCCTCCTTCCCGGAGTCACCTAGTGCAG,10700 fluorescence intensity (a.u.)
13,TGGGGTTTATGGATTTAGGGTCTCGGGCAAAGGCGACAATCGGAGTCACCTAGTGCAG,10600 fluorescence intensity (a.u.)
14,TTGGATTATGGCGCCATTTGTGAATGAATTTTGGGGTTTTCGGAGTCACCTAGTGCAG,12300 fluorescence intensity (a.u.)
15,TGCACGCGTCGACCCTTTCTGCTACATGCGTCGAAGCCGACGGAGTCACCTAGTGCAG,8520 fluorescence intensity (a.u.)
16,GTACGCACATTGTCGTCGGTACCAGCTGCAGCTAGCCCAACGGAGTCACCTAGTGCAG,8530 fluorescence intensity (a.u.)
17,TTCTTCTTCACGTACTACGCCTGTGCCCCTCGTCACACCTCGGAGTCACCTAGTGCAG,8460 fluorescence intensity (a.u.)
18,AGTTAAGGGACCCTGCATATCTGGTTTTGTGTTTCGAGAACGGAGTCACCTAGTGCAG,8150 fluorescence intensity (a.u.)
19,ACACTTGCATATTTACCTTCAAACCTTTTTTTTTCTCTTCCGGAGTCACCTAGTGCAG,8180 fluorescence intensity (a.u.)
20,CTATGTAGCGTGAGATCCTCTGCCGTCGACGCCATCTTCTCGGAGTCACCTAGTGCAG,8980 fluorescence intensity (a.u.)
21,AGTGCCAGCTATATTATCACCTACTACTGCCACCTTTATACGGAGTCACCTAGTGCAG,8570 fluorescence intensity (a.u.)

# Individual results from the list:
# Entry for CATCCACTACCATTTCGCCGTCCACTTGTCATTCTTTTCACGGAGTCACCTAGTGCAG under binding signal: 10900 fluorescence intensity (a.u.)
# Entry for AGTTCTACATGTGCCAACCACATCCCAATACGCCGACATCCGGAGTCACCTAGTGCAG under binding signal: 11100 fluorescence intensity (a.u.)
# Entry for AGCTCATCACTTCTTCTTGCATGCATGCACTACCGTCGGCCGGAGTCACCTAGTGCAG under binding signal: 10400 fluorescence intensity (a.u.)
# Entry for TGGGGTTTATGGATTTAGGGTCTCGGGCAAAGGCGACAATCGGAGTCACCTAGTGCAG under binding signal: 10600 fluorescence intensity (a.u.)

# Later entries

row,Sequence,binding signal
1,TCCCATCACACACACCACCGCTCCGCTCCATGTCGCACCACGGAGTCACCTAGTGCAG,8350 fluorescence intensity (a.u.)
2,TAGACTTTTGATTTCCTTTTGTTTCCATTAGTTGGCCAATCGGAGTCACCTAGTGCAG,10400 fluorescence intensity (a.u.)
3,TAAAAAAAAAGTTTTATTCTCGGGTTCGTTGGGTTTTATCCGGAGTCACCTAGTGCAG,9030 fluorescence intensity (a.u.)
4,GGATGGGGTGTCTTTTGGTCCAAATTGGAGCTACCGGAACCGGAGTCACCTAGTGCAG,10400 fluorescence intensity (a.u.)
5,CGGGGAAGGAGAGGGGCGTTAGGGAGGAGGGGCGCACAGACGGAGTCACCTAGTGCAG,16800 fluorescence intensity (a.u.)
6,GTTCGATGCATCTCGCCACCATGACGTGTACCGCGAAAGACGGAGTCACCTAGTGCAG,8460 fluorescence intensity (a.u.)
7,CGCGGTCGACCCACCGTCTGCCACGTCAGCTTGCTGCCCACGGAGTCACCTAGTGCAG,9510 fluorescence intensity (a.u.)
8,GCTCTTTTTTTGTTACAACTTCGTCACCGTGTTATCTATACGGAGTCACCTAGTGCAG,9290 fluorescence intensity (a.u.)
9,TTTCTCTTTAACTTATCCTCTCCAGTAAACCTCTCATACTCGGAGTCACCTAGTGCAG,8360 fluorescence intensity (a.u.)
10,GTTACATTCTTGTTCAGTCCTCACTACTCATCCCTACAATCGGAGTCACCTAGTGCAG,11500 fluorescence intensity (a.u.)
11,TTTTGAAGGGGCTGTGGTGATTTGAGACCTAGATGACACACGGAGTCACCTAGTGCAG,8050 fluorescence intensity (a.u.)
12,ATTATGGTTTAGGGTTAGGGATATGAATTACACTAGTTAACGGAGTCACCTAGTGCAG,9280 fluorescence intensity (a.u.)
13,CTCTCTGCCGCAATCACCGCGCCTCCTCCGCATTCGCGCGCGGAGTCACCTAGTGCAG,11000 fluorescence intensity (a.u.)
14,TCCTCTGCCTCCATGGCCACTCCATCCCTGTCCTCCATCCCGGAGTCACCTAGTGCAG,8300 fluorescence intensity (a.u.)
15,TATTTGTGTCTATGAAATGTGGGTTCAGTGTTATTATAGACGGAGTCACCTAGTGCAG,8990 fluorescence intensity (a.u.)
16,TGTGTGAGATTTTTGCATGTTTTTGTTGTGTTTGTTCATACGGAGTCACCTAGTGCAG,8580 fluorescence intensity (a.u.)
17,TCTGGACTGAACCTTTTGCCCATTGGTCATGCAATGTTGCCGGAGTCACCTAGTGCAG,8960 fluorescence intensity (a.u.)
18,CAACCGAAATGACAGAGGATTGACTACACGCCTATACTATCGGAGTCACCTAGTGCAG,8800 fluorescence intensity (a.u.)
19,CTTGAATTTTGCGGTGACATACTAATGCAGGACTAAAATCCGGAGTCACCTAGTGCAG,8220 fluorescence intensity (a.u.)
20,GATTCGGTCTGTTTTGGCCTTCTTGACAATATTAGCATGTCGGAGTCACCTAGTGCAG,9390 fluorescence intensity (a.u.)
21,GTAGATCTTTTTTTTTCACTAACCGACACCAGGTATATCACGGAGTCACCTAGTGCAG,9710 fluorescence intensity (a.u.)
